Earlier results in patent US10266806B2, “Stem cell-derived hepatocytes in co-culture and uses thereof” (Colorado State University Research Foundation, priority 2014, dated 2019).
At least one compound was matched to its structure with a doubt left.

Tests used:
[1] = tested on: primary human hepatocytes in sandwich cultures; conditions: primary hepatocyte sandwich cultures, HIAT; cited from earlier work
[2] = tested on: primary human hepatocytes in MPCCs; conditions: cited from earlier work
[3] = cited from earlier work

## CNCCc1ccccn1.Cl.Cl [Betahistine 2HCl]
[1]
  Model predictions Sand (binary decision in sandwich cultures): −
[2]
  Model predictions MPCC (binary decision): −
[3]
  Clin (clinical DILI): +
  DILI Cat (DILI category): P2
